PubChem BioAssay AID1259331, Drosophila RNAi Screening Center – 2017

Screen: 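Fly transmembrane-protein genes that affect zinc toxicity in cultured cells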 (primary screen)
System: Drosophila S2R+ cells
Knock-down reagent: long dsRNA against Drosophila genes
Time to read-out: 5 days (4 days knock-down, then 1 day zinc)
Challenge: zinc chloride at 15 mM final level for 1 day
Read-out: 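Total cellular ATP measured by luciferase luminescence as a viability proxy, turned into Z scores from three plate copies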
Reading the numbers: mean Z score: higher = more ATP than other wells, better survival under zinc; ATP luminescence: higher = more ATP, more viable cells
Hit rule: 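a reagent is called a hit when its Z score is above 1.5 or below -1.5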
Calls: active = hit, ATP up or down; inactive = not a hit
The deposit covers about 3,100 reagents; shown is an unselected part. 126 of all reagents (4.1%) count as active. 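Calls are per reagent; zinc was so toxic that few knock-downs lowered ATP further, so most hits raise ATP.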 Raw values are not corrected between plates. The record does not give: the amount of reagent.

CG4907 [DRSC15673] → mean Z score = -0.124; ATP luminescence, replicate 1 = 36747; ATP luminescence, replicate 2 = 58265; activity call = inactive
CG4907 [DRSC39746] → mean Z score = -0.0369; ATP luminescence, replicate 1 = 61262; ATP luminescence, replicate 2 = 59654; activity call = inactive
CG7342 [DRSC16230] → mean Z score = -0.196; ATP luminescence, replicate 1 = 42366; ATP luminescence, replicate 2 = 43845; activity call = inactive
CG7342 [DRSC39501] → mean Z score = 0.0841; ATP luminescence, replicate 1 = 49040; ATP luminescence, replicate 2 = 51475; activity call = inactive
Ih [DRSC07445] → mean Z score = -0.247; ATP luminescence, replicate 1 = 29736; ATP luminescence, replicate 2 = 28399; activity call = inactive
Ih [DRSC24809] → mean Z score = 0.724; ATP luminescence, replicate 1 = 66026; ATP luminescence, replicate 2 = 70802; activity call = inactive
wwk [DRSC01941] → mean Z score = 0.0403; ATP luminescence, replicate 1 = 53876; ATP luminescence, replicate 2 = 40536; activity call = inactive
nAChRbeta1 [DRSC08097] → mean Z score = 0.296; ATP luminescence, replicate 1 = 45379; ATP luminescence, replicate 2 = 44600; activity call = inactive
nAChRbeta1 [DRSC08728] → mean Z score = -0.453; ATP luminescence, replicate 1 = 24131; ATP luminescence, replicate 2 = 30027; activity call = inactive
Vha16-3 [DRSC10872] → mean Z score = 0.684; ATP luminescence, replicate 1 = 86989; ATP luminescence, replicate 2 = 70392; activity call = inactive
Vha16-3 [DRSC25513] → mean Z score = 0.775; ATP luminescence, replicate 1 = 65948; ATP luminescence, replicate 2 = 58594; activity call = inactive
Ir60d [DRSC04218] → mean Z score = 0.047; ATP luminescence, replicate 1 = 42062; ATP luminescence, replicate 2 = 46644; activity call = inactive

An excerpt of the results above:
CG7342 [DRSC39501] → mean Z score = 0.0841; ATP luminescence, replicate 1 = 49040; ATP luminescence, replicate 2 = 51475; activity call = inactive
Ih [DRSC07445] → mean Z score = -0.247; ATP luminescence, replicate 1 = 29736; ATP luminescence, replicate 2 = 28399; activity call = inactive
